Source: the supplement of paper PMC12823440, “Inhibitors supercharge kinase turnover through native proteolytic circuits” (Nature, 2025)
Where a name gives a salt, the structure may show the parent alone. The list shows a part of the results. The calls rarely recur for the same compound in another form.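 Kinases were expressed as nanoluciferase fusions in K562 cells and luminescence was read every 4 h between 2 and 18 h as percent of control, DMSO set to 100% and a positive control to 0%. A time point counts as decreased when the signal drops significantly (2 sigma). The hit call is the authors' own, does not follow from the count of time points alone, and its rule is not shown.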

By UniProt entry, the sequences of proteins in these tests, tags left out. Where a name states a change or a piece, a line headed by the entry shows the natural chain unless it says otherwise.
UniProt O15530: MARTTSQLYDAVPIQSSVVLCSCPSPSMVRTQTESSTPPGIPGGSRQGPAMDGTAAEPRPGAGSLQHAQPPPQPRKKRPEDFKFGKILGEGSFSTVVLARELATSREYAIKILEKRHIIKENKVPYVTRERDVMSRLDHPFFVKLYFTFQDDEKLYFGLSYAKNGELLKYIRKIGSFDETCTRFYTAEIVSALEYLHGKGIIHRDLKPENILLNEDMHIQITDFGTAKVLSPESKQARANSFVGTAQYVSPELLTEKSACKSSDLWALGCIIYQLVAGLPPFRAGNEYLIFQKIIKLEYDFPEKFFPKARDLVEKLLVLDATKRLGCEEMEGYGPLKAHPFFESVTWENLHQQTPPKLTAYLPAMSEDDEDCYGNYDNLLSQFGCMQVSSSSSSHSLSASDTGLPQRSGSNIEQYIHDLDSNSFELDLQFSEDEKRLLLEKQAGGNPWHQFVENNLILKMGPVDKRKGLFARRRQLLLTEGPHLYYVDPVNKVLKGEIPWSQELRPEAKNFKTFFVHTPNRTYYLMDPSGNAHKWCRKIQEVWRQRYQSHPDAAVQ
UniProt P42356, whole entry, looked up: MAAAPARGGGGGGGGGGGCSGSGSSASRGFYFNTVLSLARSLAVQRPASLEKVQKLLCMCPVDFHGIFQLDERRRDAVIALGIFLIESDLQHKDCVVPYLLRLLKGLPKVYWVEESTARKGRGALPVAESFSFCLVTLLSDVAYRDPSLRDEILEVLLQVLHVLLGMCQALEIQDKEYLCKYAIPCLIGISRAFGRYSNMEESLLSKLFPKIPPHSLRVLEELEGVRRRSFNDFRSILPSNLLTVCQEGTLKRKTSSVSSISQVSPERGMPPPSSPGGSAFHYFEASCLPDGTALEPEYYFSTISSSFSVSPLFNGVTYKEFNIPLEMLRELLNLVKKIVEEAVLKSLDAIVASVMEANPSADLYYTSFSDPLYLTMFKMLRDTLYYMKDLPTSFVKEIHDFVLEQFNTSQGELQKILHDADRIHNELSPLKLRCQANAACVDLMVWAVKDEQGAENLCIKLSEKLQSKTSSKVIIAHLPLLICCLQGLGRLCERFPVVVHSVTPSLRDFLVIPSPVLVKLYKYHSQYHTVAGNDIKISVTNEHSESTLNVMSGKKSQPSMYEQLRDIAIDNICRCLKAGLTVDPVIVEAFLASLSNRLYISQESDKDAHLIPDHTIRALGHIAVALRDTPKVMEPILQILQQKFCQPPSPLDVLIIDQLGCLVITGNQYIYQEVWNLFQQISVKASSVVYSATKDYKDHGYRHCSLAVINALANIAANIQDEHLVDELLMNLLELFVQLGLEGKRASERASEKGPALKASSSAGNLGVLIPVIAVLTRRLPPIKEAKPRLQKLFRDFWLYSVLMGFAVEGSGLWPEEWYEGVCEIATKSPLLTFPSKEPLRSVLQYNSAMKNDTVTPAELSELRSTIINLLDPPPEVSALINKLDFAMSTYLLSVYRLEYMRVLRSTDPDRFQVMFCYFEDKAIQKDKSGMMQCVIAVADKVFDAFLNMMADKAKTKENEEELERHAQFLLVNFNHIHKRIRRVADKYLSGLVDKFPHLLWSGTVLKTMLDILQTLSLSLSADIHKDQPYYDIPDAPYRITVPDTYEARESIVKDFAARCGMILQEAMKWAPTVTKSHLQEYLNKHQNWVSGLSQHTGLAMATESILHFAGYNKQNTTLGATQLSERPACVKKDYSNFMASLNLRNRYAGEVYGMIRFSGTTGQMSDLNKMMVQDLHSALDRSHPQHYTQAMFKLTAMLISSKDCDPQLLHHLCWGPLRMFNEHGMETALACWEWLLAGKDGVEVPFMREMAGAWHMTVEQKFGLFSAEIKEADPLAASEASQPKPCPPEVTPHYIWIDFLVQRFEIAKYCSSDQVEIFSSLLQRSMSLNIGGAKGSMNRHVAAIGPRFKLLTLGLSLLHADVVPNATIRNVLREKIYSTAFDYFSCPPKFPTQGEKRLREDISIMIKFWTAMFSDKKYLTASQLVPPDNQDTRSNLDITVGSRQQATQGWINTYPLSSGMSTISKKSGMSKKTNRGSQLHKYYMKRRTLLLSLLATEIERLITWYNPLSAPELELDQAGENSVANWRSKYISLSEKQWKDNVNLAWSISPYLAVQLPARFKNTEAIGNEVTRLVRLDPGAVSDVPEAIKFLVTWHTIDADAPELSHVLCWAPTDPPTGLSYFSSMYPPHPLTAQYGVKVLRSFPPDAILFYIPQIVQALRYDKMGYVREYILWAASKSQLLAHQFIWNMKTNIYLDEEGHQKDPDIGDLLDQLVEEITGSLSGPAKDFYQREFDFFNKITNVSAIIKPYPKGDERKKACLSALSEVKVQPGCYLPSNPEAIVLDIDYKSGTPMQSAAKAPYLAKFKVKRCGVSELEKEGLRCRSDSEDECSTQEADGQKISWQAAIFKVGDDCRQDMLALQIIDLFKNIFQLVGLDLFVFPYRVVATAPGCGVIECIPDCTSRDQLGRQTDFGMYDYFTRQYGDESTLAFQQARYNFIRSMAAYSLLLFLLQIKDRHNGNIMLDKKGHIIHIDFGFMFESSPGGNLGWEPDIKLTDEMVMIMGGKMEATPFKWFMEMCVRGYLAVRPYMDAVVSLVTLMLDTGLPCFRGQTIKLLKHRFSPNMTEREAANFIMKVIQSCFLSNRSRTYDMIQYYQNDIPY
UniProt P53350, whole entry: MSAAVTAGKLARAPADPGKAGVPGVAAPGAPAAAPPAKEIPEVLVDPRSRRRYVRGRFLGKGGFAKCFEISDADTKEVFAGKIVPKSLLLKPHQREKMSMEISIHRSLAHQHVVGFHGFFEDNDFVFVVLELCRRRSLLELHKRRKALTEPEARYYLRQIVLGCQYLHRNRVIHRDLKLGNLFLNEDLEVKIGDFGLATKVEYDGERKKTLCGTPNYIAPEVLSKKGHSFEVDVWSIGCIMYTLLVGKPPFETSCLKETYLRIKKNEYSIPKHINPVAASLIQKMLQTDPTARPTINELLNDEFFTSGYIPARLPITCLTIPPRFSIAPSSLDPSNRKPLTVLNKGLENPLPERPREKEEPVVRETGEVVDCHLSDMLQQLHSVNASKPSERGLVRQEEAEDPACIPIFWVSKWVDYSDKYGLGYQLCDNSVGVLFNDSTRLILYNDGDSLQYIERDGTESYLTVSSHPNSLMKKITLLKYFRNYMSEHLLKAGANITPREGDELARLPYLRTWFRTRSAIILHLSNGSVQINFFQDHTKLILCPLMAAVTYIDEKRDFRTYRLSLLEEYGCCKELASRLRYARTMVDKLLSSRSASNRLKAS
UniProt Q13131: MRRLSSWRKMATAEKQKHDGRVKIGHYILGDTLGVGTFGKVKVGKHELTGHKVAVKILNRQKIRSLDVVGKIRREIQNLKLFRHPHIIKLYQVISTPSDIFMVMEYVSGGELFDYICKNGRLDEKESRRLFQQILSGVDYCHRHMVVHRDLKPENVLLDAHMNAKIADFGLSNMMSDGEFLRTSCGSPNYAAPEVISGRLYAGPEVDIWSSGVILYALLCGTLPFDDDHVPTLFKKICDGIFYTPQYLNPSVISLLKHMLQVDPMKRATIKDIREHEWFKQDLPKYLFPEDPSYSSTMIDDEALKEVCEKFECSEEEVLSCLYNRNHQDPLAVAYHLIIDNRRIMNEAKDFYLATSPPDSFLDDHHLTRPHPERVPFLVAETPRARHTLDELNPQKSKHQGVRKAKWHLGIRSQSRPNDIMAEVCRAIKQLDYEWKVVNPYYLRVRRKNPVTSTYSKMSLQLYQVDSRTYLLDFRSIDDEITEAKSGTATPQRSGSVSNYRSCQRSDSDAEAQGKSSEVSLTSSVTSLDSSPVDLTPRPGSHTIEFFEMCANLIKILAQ
UniProt Q05397, whole entry, looked up: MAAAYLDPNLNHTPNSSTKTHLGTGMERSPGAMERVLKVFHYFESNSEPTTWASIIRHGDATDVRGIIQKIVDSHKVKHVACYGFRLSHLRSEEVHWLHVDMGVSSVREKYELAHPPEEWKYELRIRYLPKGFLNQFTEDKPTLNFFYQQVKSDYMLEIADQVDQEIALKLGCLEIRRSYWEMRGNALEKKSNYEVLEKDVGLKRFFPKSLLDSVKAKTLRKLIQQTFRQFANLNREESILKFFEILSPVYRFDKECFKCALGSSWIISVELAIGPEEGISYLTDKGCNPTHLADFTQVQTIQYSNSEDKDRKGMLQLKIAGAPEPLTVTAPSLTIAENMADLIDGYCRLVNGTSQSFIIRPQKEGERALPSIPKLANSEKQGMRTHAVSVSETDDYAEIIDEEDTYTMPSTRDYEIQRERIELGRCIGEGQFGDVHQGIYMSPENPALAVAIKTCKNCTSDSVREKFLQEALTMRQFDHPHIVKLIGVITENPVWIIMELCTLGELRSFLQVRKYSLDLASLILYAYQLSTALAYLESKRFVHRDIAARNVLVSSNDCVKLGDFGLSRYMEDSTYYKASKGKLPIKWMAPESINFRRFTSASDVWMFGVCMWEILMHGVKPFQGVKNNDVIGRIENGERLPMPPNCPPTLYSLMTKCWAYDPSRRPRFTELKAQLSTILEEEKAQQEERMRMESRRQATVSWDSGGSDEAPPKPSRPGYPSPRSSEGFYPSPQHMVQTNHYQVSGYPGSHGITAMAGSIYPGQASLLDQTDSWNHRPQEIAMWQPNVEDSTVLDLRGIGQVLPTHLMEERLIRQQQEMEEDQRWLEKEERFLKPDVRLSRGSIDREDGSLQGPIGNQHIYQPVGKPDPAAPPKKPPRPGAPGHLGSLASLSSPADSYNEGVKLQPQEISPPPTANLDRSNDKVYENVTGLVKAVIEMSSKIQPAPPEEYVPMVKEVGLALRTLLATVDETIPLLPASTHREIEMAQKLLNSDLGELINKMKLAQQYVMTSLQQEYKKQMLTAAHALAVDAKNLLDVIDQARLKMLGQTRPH
UniProt Q14289, whole entry, looked up: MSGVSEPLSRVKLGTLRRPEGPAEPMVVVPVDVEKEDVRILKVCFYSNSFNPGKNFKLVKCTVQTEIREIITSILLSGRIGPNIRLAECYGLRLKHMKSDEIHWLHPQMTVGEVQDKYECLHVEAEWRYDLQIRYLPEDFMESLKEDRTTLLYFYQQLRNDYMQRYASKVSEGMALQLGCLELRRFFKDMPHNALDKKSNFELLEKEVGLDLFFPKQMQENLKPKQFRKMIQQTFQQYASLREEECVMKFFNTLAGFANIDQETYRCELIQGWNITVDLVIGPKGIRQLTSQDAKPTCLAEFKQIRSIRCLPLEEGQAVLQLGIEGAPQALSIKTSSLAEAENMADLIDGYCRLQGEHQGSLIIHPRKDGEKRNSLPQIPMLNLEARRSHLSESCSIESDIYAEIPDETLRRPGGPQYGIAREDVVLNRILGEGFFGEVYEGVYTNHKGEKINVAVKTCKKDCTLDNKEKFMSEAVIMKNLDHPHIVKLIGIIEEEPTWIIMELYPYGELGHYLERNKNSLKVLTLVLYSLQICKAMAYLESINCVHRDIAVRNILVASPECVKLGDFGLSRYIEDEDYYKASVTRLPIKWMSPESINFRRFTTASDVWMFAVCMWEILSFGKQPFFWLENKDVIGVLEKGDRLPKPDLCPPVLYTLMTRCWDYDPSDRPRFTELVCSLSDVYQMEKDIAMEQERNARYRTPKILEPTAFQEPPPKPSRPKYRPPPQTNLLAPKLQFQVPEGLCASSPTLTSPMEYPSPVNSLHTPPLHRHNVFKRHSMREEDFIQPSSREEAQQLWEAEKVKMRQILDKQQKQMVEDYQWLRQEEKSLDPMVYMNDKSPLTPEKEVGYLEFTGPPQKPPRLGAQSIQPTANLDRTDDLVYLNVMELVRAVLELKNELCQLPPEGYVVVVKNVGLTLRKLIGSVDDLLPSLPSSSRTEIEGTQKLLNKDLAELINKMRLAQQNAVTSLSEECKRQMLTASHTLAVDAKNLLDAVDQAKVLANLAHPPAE

Key:
Assay in all cases: kinase-Nluc reporter destabilization hit call (1 = scored as downregulated) (binary); higher = compound decreases kinase abundance
Conditions in all cases: K562; 2-18 h
PDPK1 = PDPK1 (UniProt O15530)
PIK4CA = PIK4CA (UniProt P42356)
PIK4CB = PIK4CB (UniProt Q9UBF8)
PLK1 = PLK1 (UniProt P53350)
PRKAA1 = PRKAA1 (UniProt Q13131)
PRKCA = PRKCA (UniProt P17252)
PTK2 = PTK2 (UniProt Q05397)
PTK2B = PTK2B (UniProt Q14289)
RAF1 = RAF1 (UniProt P04049)
[1] = target: RAF1_S257L (clone: RAF1_mut) (UniProt P04049)

Structure (SMILES) | kinase-Nluc reporter destabilization hit call (PDPK1) | kinase-Nluc reporter destabilization hit call (PIK4CA) | kinase-Nluc reporter destabilization hit call (PIK4CB) | kinase-Nluc reporter destabilization hit call (PLK1) | kinase-Nluc reporter destabilization hit call (PRKAA1) | kinase-Nluc reporter destabilization hit call (PRKCA) | kinase-Nluc reporter destabilization hit call (PTK2) | kinase-Nluc reporter destabilization hit call (PTK2B) | kinase-Nluc reporter destabilization hit call (RAF1) | kinase-Nluc reporter destabilization hit call [1]
CCCNC(=O)Nc1ccc(Oc2ncnc3cc(OC)c(OC)cc23)cc1Cl (2.5 µM) | inactive: 0 | inactive: 0 | inactive: 0 | inactive: 0 | inactive: 0 | inactive: 0 | inactive: 0 | inactive: 0 | inactive: 0 | inactive: 0
O=C(O)c1cccc(CN2C(=O)/C(=C(\c3ccccc3)c3ccc(Cl)cc3)c3ccccc32)c1 (2.5 µM) | inactive: 0 | inactive: 0 | inactive: 0 | inactive: 0 | inactive: 0 | inactive: 0 | inactive: 0 | inactive: 0 | inactive: 0 | inactive: 0
COc1ccc(N=Nc2c(N)n[nH]c2N)cc1 (10 µM) | inactive: 0 | inactive: 0 | inactive: 0 | inactive: 0 | inactive: 0 | inactive: 0 | inactive: 0 | inactive: 0 | inactive: 0 | inactive: 0
COc1ccc(-c2coc3cc(O)ccc3c2=O)cc1 [Formononetin] (10 µM) | inactive: 0 | inactive: 0 | inactive: 0 | inactive: 0 | inactive: 0 | inactive: 0 | inactive: 0 | inactive: 0 | inactive: 0 | inactive: 0
CCn1c(=O)c(-c2cc[nH]n2)cc2c(C)nc(N)nc21 [Voxtalisib] (10 µM) | inactive: 0 | inactive: 0 | inactive: 0 | inactive: 0 | inactive: 0 | inactive: 0 | inactive: 0 | inactive: 0 | inactive: 0 | inactive: 0
CC(=O)N1CCC(c2cc(-c3ccc(NC(=O)c4cccn(-c5ccc(F)cc5)c4=O)cc3F)c3c(N)ncnn23)CC1 (0.5 µM) | inactive: 0 | inactive: 0 | inactive: 0 | inactive: 0 | inactive: 0 | inactive: 0 | inactive: 0 | inactive: 0 | inactive: 0 | inactive: 0
N#Cc1ccnc(Nc2cc(C3CCN(C4COC4)CC3)cc(N3CCC(F)(F)C3)n2)c1 (2.5 µM) | inactive: 0 | inactive: 0 | inactive: 0 | inactive: 0 | inactive: 0 | inactive: 0 | inactive: 0 | inactive: 0 | inactive: 0 | inactive: 0
Cc1nc(-c2cnn(C)c2)nc2c1[nH]c1ncc(-c3ccc(N4CCN(C)CC4)cc3)cc12 [GNE 220 (hydrochloride)] (10 µM) | inactive: 0 | inactive: 0 | inactive: 0 | inactive: 0 | inactive: 0 | inactive: 0 | inactive: 0 | inactive: 0 | inactive: 0 | inactive: 0
COc1ccc(S(=O)(=O)NCc2ccc(C(=O)NCCc3ccc(Cl)cn3)cc2)cc1 (10 µM) | inactive: 0 | inactive: 0 | inactive: 0 | inactive: 0 | inactive: 0 | inactive: 0 | inactive: 0 | inactive: 0 | inactive: 0 | inactive: 0
c1ccc(-c2nc3c(c(-n4ccc5cnccc54)n2)CCC3)nc1 (10 µM) | inactive: 0 | inactive: 0 | inactive: 0 | inactive: 0 | inactive: 0 | inactive: 0 | inactive: 0 | inactive: 0 | inactive: 0 | inactive: 0
Cn1cnc([N+](=O)[O-])c1C[N+](C)(C)C/C=C/C(=O)Nc1cc2c(Nc3ccc(Cl)c(Br)c3)ncnc2cn1 [Tarloxotinib (bromide)] (10 µM) | inactive: 0 | inactive: 0 | inactive: 0 | inactive: 0 | inactive: 0 | inactive: 0 | inactive: 0 | inactive: 0 | inactive: 0 | inactive: 0
C=CC(=O)Nc1cc(Nc2nccc(-n3cc(CN(C)C)c(-c4ccccc4)n3)n2)c(OC)cc1N1CCOCC1 [Lazertinib] (10 µM) | inactive: 0 | inactive: 0 | inactive: 0 | inactive: 0 | inactive: 0 | inactive: 0 | inactive: 0 | inactive: 0 | inactive: 0 | inactive: 0
CC(=O)c1c(C)c2cnc(Nc3ccc(N4CCN(C(=O)CNc5cccc6c5C(=O)N(C5CCC(=O)NC5=O)C6=O)CC4)cn3)nc2n(C2CCCC2)c1=O (stereo not given) (10 µM) | inactive: 0 | inactive: 0 | inactive: 0 | inactive: 0 | inactive: 0 | inactive: 0 | inactive: 0 | inactive: 0 | inactive: 0 | inactive: 0
Cc1ccc(Oc2nc3cc(-c4ccc(-c5ccccc5)cc4)c(Cl)cc3[nH]2)cc1C(=O)O (10 µM) | inactive: 0 | inactive: 0 | inactive: 0 | inactive: 0 | inactive: 0 | inactive: 0 | inactive: 0 | inactive: 0 | inactive: 0 | inactive: 0
Cc1cccc(-c2[nH]c(C(C)(C)C)nc2-c2ccc3nccnc3c2)n1 (10 µM) | inactive: 0 | inactive: 0 | inactive: 0 | inactive: 0 | inactive: 0 | inactive: 0 | inactive: 0 | inactive: 0 | inactive: 0 | inactive: 0
C[C@H](Nc1ncnc2[nH]cnc12)c1cc2ccc(F)cc2nc1-c1ccccn1 (10 µM) | inactive: 0 | inactive: 0 | inactive: 0 | inactive: 0 | inactive: 0 | inactive: 0 | inactive: 0 | inactive: 0 | inactive: 0 | inactive: 0
O=C(Nc1cccc(C(F)(F)F)c1)c1cccc2cc(Oc3cc(CO)ncn3)ccc12 (10 µM) | inactive: 0 | inactive: 0 | inactive: 0 | inactive: 0 | inactive: 0 | inactive: 0 | inactive: 0 | inactive: 0 | inactive: 0 | inactive: 0

Structure (SMILES) | kinase-Nluc reporter destabilization hit call (PDPK1) | kinase-Nluc reporter destabilization hit call (PIK4CA) | kinase-Nluc reporter destabilization hit call (PIK4CB) | kinase-Nluc reporter destabilization hit call (PLK1) | kinase-Nluc reporter destabilization hit call (PRKAA1) | kinase-Nluc reporter destabilization hit call (PRKCA) | kinase-Nluc reporter destabilization hit call (PTK2) | kinase-Nluc reporter destabilization hit call (PTK2B) | kinase-Nluc reporter destabilization hit call (RAF1) | kinase-Nluc reporter destabilization hit call [1]
CN(C)S(=O)(=O)c1ccc2c(c1)/C(=C/c1cc3c([nH]1)CCCC3)C(=O)N2 (2.5 µM) | inactive: 0 | inactive: 0 | inactive: 0 | inactive: 0 | inactive: 0 | inactive: 0 | inactive: 0 | inactive: 0 | inactive: 0 | inactive: 0
COc1cc(/C=C/C(=O)N2CCC=CC2=O)cc(OC)c1OC [Piperlongumine] (2.5 µM) | inactive: 0 | inactive: 0 | active: 1 | inactive: 0 | inactive: 0 | inactive: 0 | inactive: 0 | inactive: 0 | inactive: 0 | active: 1
O=C(CNc1cccc(Cl)c1)NC1CCCN(c2ncnc3[nH]ccc23)C1 (stereo not given) (10 µM) | inactive: 0 | inactive: 0 | inactive: 0 | inactive: 0 | inactive: 0 | inactive: 0 | inactive: 0 | inactive: 0 | inactive: 0 | inactive: 0
CN(C)CCC=C1c2ccccc2CCc2ccccc21 [Amitriptyline (hydrochloride)] (2.5 µM) | inactive: 0 | inactive: 0 | inactive: 0 | inactive: 0 | inactive: 0 | inactive: 0 | inactive: 0 | inactive: 0 | inactive: 0 | inactive: 0
O=C(Nc1nc2ccccc2[nH]1)c1cccc([N+](=O)[O-])c1 [IRAK-4 protein kinase inhibitor 2] (10 µM) | inactive: 0 | inactive: 0 | inactive: 0 | inactive: 0 | inactive: 0 | inactive: 0 | inactive: 0 | inactive: 0 | inactive: 0 | inactive: 0
CCCCCCCCCCCCCCCCOP(=O)([O-])OCC[N+](C)(C)C [Miltefosine] (10 µM) | inactive: 0 | inactive: 0 | inactive: 0 | inactive: 0 | inactive: 0 | inactive: 0 | inactive: 0 | inactive: 0 | inactive: 0 | inactive: 0
COc1ccc2cc(-c3nc(-c4ccc([S+](C)[O-])cc4)[nH]c3-c3ccncc3)ccc2c1 (stereo not given) [Tie2 kinase inhibitor 1] (2.5 µM) | inactive: 0 | inactive: 0 | inactive: 0 | inactive: 0 | inactive: 0 | inactive: 0 | inactive: 0 | inactive: 0 | inactive: 0 | inactive: 0
O=C1NC(=O)C(c2cnc3ccccn23)=C1c1cn2c3c(cc(F)cc13)CNCC2 [GSK-3 inhibitor 1] (2.5 µM) | inactive: 0 | inactive: 0 | inactive: 0 | inactive: 0 | inactive: 0 | inactive: 0 | inactive: 0 | inactive: 0 | inactive: 0 | inactive: 0
N#Cc1c2nc3ccccc3nc2n2ccc(NC(=O)c3cccs3)cc12 (10 µM) | inactive: 0 | inactive: 0 | inactive: 0 | inactive: 0 | inactive: 0 | inactive: 0 | inactive: 0 | inactive: 0 | inactive: 0 | inactive: 0
COc1cc2ncnc(Nc3ccccc3)c2cc1OC (10 µM) | inactive: 0 | inactive: 0 | inactive: 0 | inactive: 0 | inactive: 0 | inactive: 0 | inactive: 0 | inactive: 0 | inactive: 0 | inactive: 0
O=C(NCc1cccc(O)c1)Nc1nc(-c2ccncc2)cs1 (10 µM) | inactive: 0 | inactive: 0 | inactive: 0 | inactive: 0 | inactive: 0 | inactive: 0 | inactive: 0 | inactive: 0 | inactive: 0 | inactive: 0
Nc1c(C(=O)NCc2ccc(C(=O)NCCCC3CCCCC3)cc2)cnn1-c1ccccc1 (2.5 µM) | inactive: 0 | inactive: 0 | inactive: 0 | inactive: 0 | inactive: 0 | inactive: 0 | inactive: 0 | inactive: 0 | inactive: 0 | inactive: 0
CNc1nc(Nc2cn(C(C)(C)C#N)nc2C)ncc1C(F)(F)F (10 µM) | inactive: 0 | inactive: 0 | inactive: 0 | inactive: 0 | inactive: 0 | inactive: 0 | inactive: 0 | inactive: 0 | inactive: 0 | inactive: 0
O=C(Nc1cccc(Nc2ncc(Br)c(NCCc3cnc[nH]3)n2)c1)N1CCCC1 (10 µM) | inactive: 0 | inactive: 0 | inactive: 0 | inactive: 0 | inactive: 0 | inactive: 0 | inactive: 0 | inactive: 0 | inactive: 0 | inactive: 0
Cc1cnc(-c2ccc(-c3ccc(NC(=O)Nc4cccc(C(F)(F)F)c4)cc3F)c3c2C(=O)NC3)[nH]1 (10 µM) | inactive: 0 | inactive: 0 | inactive: 0 | inactive: 0 | inactive: 0 | inactive: 0 | active: 1 | inactive: 0 | inactive: 0 | inactive: 0
COc1cc(N2CCOCC2)ccc1Nc1ncc(Cl)c(Nc2ccccc2NS(C)(=O)=O)n1 (2.5 µM) | inactive: 0 | inactive: 0 | inactive: 0 | inactive: 0 | inactive: 0 | inactive: 0 | inactive: 0 | inactive: 0 | inactive: 0 | inactive: 0

In a second layout: results already given.
Structure (SMILES),kinase-Nluc reporter destabilization hit call (PDPK1),kinase-Nluc reporter destabilization hit call (PIK4CA),kinase-Nluc reporter destabilization hit call (PIK4CB),kinase-Nluc reporter destabilization hit call (PLK1),kinase-Nluc reporter destabilization hit call (PRKAA1),kinase-Nluc reporter destabilization hit call (PRKCA),kinase-Nluc reporter destabilization hit call (PTK2),kinase-Nluc reporter destabilization hit call (PTK2B),kinase-Nluc reporter destabilization hit call (RAF1),kinase-Nluc reporter destabilization hit call [1]
CCCCCCCCCCCCCCCCOP(=O)([O-])OCC[N+](C)(C)C [Miltefosine] (10 µM),inactive: 0,inactive: 0,inactive: 0,inactive: 0,inactive: 0,inactive: 0,inactive: 0,inactive: 0,inactive: 0,inactive: 0
COc1ccc2cc(-c3nc(-c4ccc([S+](C)[O-])cc4)[nH]c3-c3ccncc3)ccc2c1 (stereo not given) [Tie2 kinase inhibitor 1] (2.5 µM),inactive: 0,inactive: 0,inactive: 0,inactive: 0,inactive: 0,inactive: 0,inactive: 0,inactive: 0,inactive: 0,inactive: 0
